# In patent US20090181909:
# System: T1, L-AVP ((Arg8)-vasopressin) (Homo sapiens)
# T1 sequence: CYFQNCPRG
# Test: activity in cells
# Conditions: L-RNA, hexaethylene glycol (PEG) spacer between Helix 2 and Helix 1, purified recombinant protein, protein details: L-peptide (cell assays: Calbiochem), synthetic backbone, mirror-image nucleic acid, variant of CHF-F-037 (D-RNA aptamer)
Sequence,"IC50 (V1 receptor Ca release, A7r5 cells, 5 nM AVP)","IC50 (V2 receptor cAMP, LLC-PK1 cells, 1 nM AVP)","IC50 (3'-C6-amino 40 kDa PEG, V1 receptor Ca release, A7r5 cells, 5 nM AVP)","IC50 (3'-C6-amino 40 kDa PEG, V2 receptor cAMP, LLC-PK1 cells, 1 nM AVP)"
GGGGUAGGGCUUGGAUGGGUAGUACACGUGUGCGUGGU [CHF-F-037 spiegelmer],6 nM,1 nM,–,–
GGGGUAGGGCUUGGAUGGGUAGUACACGUGUGCGUGGU [CHF-F-037-3'PEG spiegelmer],–,–,7 nM,1 nM

# The exact form of at least one protein or probe is not confirmed.
